For some assays here: At least one structure is not confirmed: it was looked up by name or label, or the drawing left a doubt. Some entries share one result that the patent states for a list of compounds.
What was measured:
[1] = tested on: CD4, CD8, CD49d and B220 cells in the spleen and maxillary lymph nodes; assay: Lymphocyte depletion in lymphoid organs, phenotyping of spleen and maxillary lymph nodes (Example 2, Table 2); type: in vivo, C57BL/6 mice; settings: 14 days after onset of immunosuppression
Procedure: Blood sampling was performed by tail bleeding.
Blood, lymph node cells and splenocytes were processed according to previously described methods (28, 29) for numeration and flow cytometry assisted phenotyping. Blood lymphocytes were counted using Trypan blue.
The blood compartment represents only 1 to 2% on the total body lymphoid mass. The Inventors therefore monitored lymphocyte depletion by phenotyping for T and B cells, spleen and lymph nodes 14 days after onset of immunosuppression. Compared to controls (PBS and NRS) Fludarabine- and ATG-based immunosuppressive therapies induced modifications of lymphocyte proportion in lymphoid organs (Table 2).
Peripheral lymphoid organs were sampled 14 days after onset of immunosuppressive treatment administration. Values presented are the percentages of CD4, CD8, CD49d and B220 cells observed in the spleen and maxillary lymph nodes, and the absolute values of CD4, CD8, CD49d and B220 by reference to the number of lymphocytes contained in each organ.

[2] = tested on: peripheral blood lymphocytes; assay: Peripheral blood lymphocyte depletion induced by immunosuppressive treatment (Example 1); type: in vivo, C57BL/6 mice; settings: ATG 20 mg/kg single ip (2 hours after injection); fludarabine 200 mg/kg/day ip for 6 days

SMILES: Nc1nc(F)nc2c1ncn2[C@@H]1O[C@H](CO)[C@@H](O)[C@@H]1O [Fludarabine]
- percentage of null cells in spleens [1]: exceeded 15%
- depletion of the peripheral blood T lymphocyte compartment (CD4+ and CD8+) [2]: less markedly pronounced than with ATG
